Experimental data as given in patent US20210213134A1, “THIOL-BASED MULTIVALENT DRUG DELIVERY COMPOSITIONS” (ORPRO THERAPEUTICS, INC., priority 2018, published 2021).

Test: DTNB assay (percent reduction state, free sulfhydryl)
Type: physicochemical
Details: Table 1; for A412 nm: free SH concentration
Description: C35STRX-antibiotic conjugates are dissolved in PBS to the original volume before lyophilization and assayed for stability over seven days in comparison to non-conjugated reduced C35STRX. C35STRX-antibiotic conjugate concentration is measured by BCA protein assay (Pierce). […] Degradation/aggregation of C35STRX-antibiotic conjugates is determined by the percentage of C35STRX-antibiotic conjugate monomers assayed by SEC using an Agilent 1100 HPLC system and a BioBasic SEC-300 250×4.6 column (ThermoScientific) with a 40 mM Na acetate, 450 mM Na chloride 2 mM EDTA (pH 5.5) buffer at a flow rate 0.350 mL/min and detection by absorbance at 280 nm (A280).
Codon-optimized synthetic oligonucleotides encoding Lys to Ala mutants of C35STRX cloned into vector pD861 (Atum, Newark, Calif.) are expressed solubly in BL21 ΔrhaB E. coli under rhamnose induction (0.1% w/v, 26 deg C.) in APF-LB medium with 0.05% w/v glucose substrate at an O.D.600 of 0.8 in 2.8 L Fernbach shake flasks at NRC (Montreal Canada). Following cell pellet lysis (EmulsiFlex-C3, Avestin, Ottawa Canada) protein is purified from clarified extracts using anion exchange chromatography (FPLC, Akta) and 5 kDa ultrafiltration/diafiltration (UF/DF). Purified C35S(KA)TRX proteins (1 g) reduced with DTT are exchanged into lyophilization buffer prior to an additional UF/DF step under nitrogen to prevent re-oxidation. Physical characterization: C35S(KA)TRX concentration is measured by BCA Protein assay (Pierce).

Molecule | A412 nm OD [OD] | A412 nm [mM]
C35STRX: monocysteinic active site Cys32-Ser35 variant of human thioredoxin-1, mucus-targeting scaffold (protein) MVKQIESKTAFQEALDAAGDKLVVVDFSATWCGPSKMIKPFFHSLSEKYSNVIFLEVDVDDCQDVASECEVKCMPTFQFFKKGQKVGEFSGANKEKLEATINELV | 1.22 | 1.85
Azido-C35STRX (conjugate, UniProt P10599 2-105, looked up, variant C35S, azido group) Thioredoxin: VKQIESKTAFQEALDAAGDKLVVVDFSATWCGPSKMIKPFFHSLSEKYSNVIFLEVDVDDCQDVASECEVKCMPTFQFFKKGQKVGEFSGANKEKLEATINELV | 0.40 | 0.61
